These are yes or no findings as the source states them, for the method shown. In cells and extracts the contact can be indirect. Here binding means that the protein was enriched with, or labelled near, the bait; the list need not be complete. For some of these results: Where a sequence is shown, tags or fusion partners need not be part of it.
Molecular target: MYC-BirA*-CNAβ1 (human) (UniProt Q5F2F8)
Experiment: proximity labelling; BioID in HeLa cells: MYC-BirA*-CNAβ1 with HA-PI4KA and the EFR3B/TTC7B/FAM126A plasmid, 50 μM biotin for 16 h; streptavidin capture from RIPA lysate, immunoblot

Protein sequences, listed by entry. Tags and fused reporters are not part of them.
UniProt Q9BYI3: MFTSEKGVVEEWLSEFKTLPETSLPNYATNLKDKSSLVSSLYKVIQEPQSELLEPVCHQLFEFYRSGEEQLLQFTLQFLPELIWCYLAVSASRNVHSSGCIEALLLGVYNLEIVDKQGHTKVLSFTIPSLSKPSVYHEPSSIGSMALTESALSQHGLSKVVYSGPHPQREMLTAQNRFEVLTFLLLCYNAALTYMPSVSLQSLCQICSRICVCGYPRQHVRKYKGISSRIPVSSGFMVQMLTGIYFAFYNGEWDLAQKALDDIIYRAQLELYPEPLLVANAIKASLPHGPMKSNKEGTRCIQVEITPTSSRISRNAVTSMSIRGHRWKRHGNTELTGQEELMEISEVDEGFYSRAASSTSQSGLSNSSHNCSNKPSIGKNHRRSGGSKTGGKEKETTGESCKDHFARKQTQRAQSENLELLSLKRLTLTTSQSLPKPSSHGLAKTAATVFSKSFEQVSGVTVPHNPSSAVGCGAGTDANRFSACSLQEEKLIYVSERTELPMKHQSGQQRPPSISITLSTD
UniProt Q86W92: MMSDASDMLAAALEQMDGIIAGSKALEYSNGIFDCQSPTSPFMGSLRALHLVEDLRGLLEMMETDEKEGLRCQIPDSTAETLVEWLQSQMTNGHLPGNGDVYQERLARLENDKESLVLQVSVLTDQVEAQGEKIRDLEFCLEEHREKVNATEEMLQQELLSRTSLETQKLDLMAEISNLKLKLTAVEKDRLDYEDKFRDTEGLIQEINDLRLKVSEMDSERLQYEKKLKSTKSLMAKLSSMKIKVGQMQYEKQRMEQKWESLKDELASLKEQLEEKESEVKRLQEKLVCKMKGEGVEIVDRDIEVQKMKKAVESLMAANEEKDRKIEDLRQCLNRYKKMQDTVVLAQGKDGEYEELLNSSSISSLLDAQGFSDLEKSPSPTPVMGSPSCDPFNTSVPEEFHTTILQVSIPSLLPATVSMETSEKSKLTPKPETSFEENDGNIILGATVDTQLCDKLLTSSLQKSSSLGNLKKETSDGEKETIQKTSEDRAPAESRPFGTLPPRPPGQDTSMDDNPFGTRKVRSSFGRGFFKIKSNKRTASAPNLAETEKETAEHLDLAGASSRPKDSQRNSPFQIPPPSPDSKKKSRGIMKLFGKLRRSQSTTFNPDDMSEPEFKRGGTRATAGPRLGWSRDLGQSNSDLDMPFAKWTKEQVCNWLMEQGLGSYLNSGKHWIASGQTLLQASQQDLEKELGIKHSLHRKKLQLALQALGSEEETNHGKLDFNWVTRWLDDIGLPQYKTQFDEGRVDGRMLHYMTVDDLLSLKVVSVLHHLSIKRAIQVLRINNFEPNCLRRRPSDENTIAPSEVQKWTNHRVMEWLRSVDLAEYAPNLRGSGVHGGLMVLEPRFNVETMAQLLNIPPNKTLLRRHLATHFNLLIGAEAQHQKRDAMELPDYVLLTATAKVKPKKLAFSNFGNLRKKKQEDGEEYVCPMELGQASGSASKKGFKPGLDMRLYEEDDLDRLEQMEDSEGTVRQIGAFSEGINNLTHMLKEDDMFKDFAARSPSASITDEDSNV

Row | Molecule | binding
1 | HA-PI4KA (from UniProt P42356 1-2102) | binds
2 | FLAG-FAM126A^WT (from UniProt Q9BYI3 1-521) | binds
3 | EFR3B-HA (protein, UniProt Q9Y2G0 1-817) MYGVCGCCGALRPRYKRLVDNIFPEDPEDGLVKTNMEKLTFYALSAPEKLDRIGAYLSERLIRDVGRHRYGYVCIAMEALDQLLMACHCQSINLFVESFLKMVAKLLESEKPNLQILGTNSFVKFANIEEDTPSYHRSYDFFVSRFSEMCHSSHDDLEIKTKIRMSGIKGLQGVVRKTVNDELQANIWDPQHMDKIVPSLLFNLQHVEEAESRSPSPLQAPEKEKESPAELAERCLRELLGRAAFGNIKNAIKPVLIHLDNHSLWEPKVFAIRCFKIIMYSIQPQHSHLVIQQLLGHLDANSRSAATVRAGIVEVLSEAAVIAATGSVGPTVLEMFNTLLRQLRLSIDYALTGSYDGAVSLGTKIIKEHEERMFQEAVIKTVGSFASTLPTYQRSEVILFIMSKVPRPSLHQAVDTGRTGENRNRLTQIMLLKSLLQVSTGFQCNNMMSALPSNFLDRLLSTALMEDAEIRLFVLEILISFIDRHGNRHKFSTISTLSDISVLKLKVDKCSRQDTVFMKKHSQQLYRHIYLSCKEETNVQKHYEALYGLLALISIELANEEVVVDLIRLVLAVQDVAQVNEENLPVYNRCALYALGAAYLNLISQLTTVPAFCQHIHEVIETRKKEAPYMLPEDVFVERPRLSQNLDGVVIELLFRQSKISEVLGGSGYNSDRLCLPYIPQLTDEDRLSKRRSIGETISLQVEVESRNSPEKEERVPAEEITYETLKKAIVDSVAVEEQERERRRQVVEKFQKAPFEEIAAHCGARASLLQSKLNQIFEITIRPPPSPSGTITAAYGQPQNHSIPVYEMKFPDLCVY | binds

Molecular target: FLAG-CNAβ1 (human) (UniProt Q5F2F8)
Experiment: affinity purification with mass spectrometry; FLAG-tagged CNAβ baits from HEK293 Flp-In T-REx lysates on anti-FLAG M2 magnetic beads, 2 h at 4 °C; label-free quantitative MS, SAINTexpress against FLAG-GFP controls, BFDR ≤ 1%

Row | Molecule | binding
4 | Liprin-Beta 1 (PPFIBP1) (from UniProt Q86W92 1-1011) | binds
5 | FAM126A (Hyccin) (endogenous) (from UniProt Q9BYI3 1-521) | binds
6 | Baculoviral IAP repeat-containing protein 6 (BIRC6/BRUCE) (from UniProt Q9NR09 1-4857) | binds
7 | PI4KA (PI4KIIIα) (endogenous) (from UniProt P42356 1-2102) | binds
8 | Phosphorylase B kinase regulatory subunit (PHKB) (protein, UniProt Q93100 1-1093) MAGAAGLTAEVSWKVLERRARTKRSGSVYEPLKSINLPRPDNETLWDKLDHYYRIVKSTLLLYQSPTTGLFPTKTCGGDQKAKIQDSLYCAAGAWALALAYRRIDDDKGRTHELEHSAIKCMRGILYCYMRQADKVQQFKQDPRPTTCLHSVFNVHTGDELLSYEEYGHLQINAVSLYLLYLVEMISSGLQIIYNTDEVSFIQNLVFCVERVYRVPDFGVWERGSKYNNGSTELHSSSVGLAKAALEAINGFNLFGNQGCSWSVIFVDLDAHNRNRQTLCSLLPRESRSHNTDAALLPCISYPAFALDDEVLFSQTLDKVVRKLKGKYGFKRFLRDGYRTSLEDPNRCYYKPAEIKLFDGIECEFPIFFLYMMIDGVFRGNPKQVQEYQDLLTPVLHHTTEGYPVVPKYYYVPADFVEYEKNNPGSQKRFPSNCGRDGKLFLWGQALYIIAKLLADELISPKDIDPVQRYVPLKDQRNVSMRFSNQGPLENDLVVHVALIAESQRLQVFLNTYGIQTQTPQQVEPIQIWPQQELVKAYLQLGINEKLGLSGRPDRPIGCLGTSKIYRILGKTVVCYPIIFDLSDFYMSQDVFLLIDDIKNALQFIKQYWKMHGRPLFLVLIREDNIRGSRFNPILDMLAALKKGIIGGVKVHVDRLQTLISGAVVEQLDFLRISDTEELPEFKSFEELEPPKHSKVKRQSSTPSAPELGQQPDVNISEWKDKPTHEILQKLNDCSCLASQAILLGILLKREGPNFITKEGTVSDHIERVYRRAGSQKLWLAVRYGAAFTQKFSSSIAPHITTFLVHGKQVTLGAFGHEEEVISNPLSPRVIQNIIYYKCNTHDEREAVIQQELVIHIGWIISNNPELFSGMLKIRIGWIIHAMEYELQIRGGDKPALDLYQLSPSEVKQLLLDILQPQQNGRCWLNRRQIDGSLNRTPTGFYDRVWQILERTPNGIIVAGKHLPQQPTLSDMTMYEMNFSLLVEDTLGNIDQPQYRQIVVELLMVVSIVLERNPELEFQDKVDLDRLVKEAFNEFQKDQSRLKEIEKQDDMTSFYNTPPLGKRGTCSYLTKAVMNLLLEGEVKPNNDDPCLIS | binds
9 | SH3 and BAR domain-containing protein endophilin B2 (SH3GLB2) (protein, UniProt Q9NR46 1-395) MDFNMKKLASDAGIFFTRAVQFTEEKFGQAEKTELDAHFENLLARADSTKNWTEKILRQTEVLLQPNPSARVEEFLYEKLDRKVPSRVTNGELLAQYMADAASELGPTTPYGKTLIKVAEAEKQLGAAERDFIHTASISFLTPLRNFLEGDWKTISKERRLLQNRRLDLDACKARLKKAKAAEAKATTVPDFQETRPRNYILSASASALWNDEVDKAEQELRVAQTEFDRQAEVTRLLLEGISSTHVNHLRCLHEFVKSQTTYYAQCYRHMLDLQKQLGRFPGTFVGTTEPASPPLSSTSPTTAAATMPVVPSVASLAPPGEASLCLEEVAPPASGTRKARVLYDYEAADSSELALLADELITVYSLPGMDPDWLIGERGNKKGKVPVTYLELLS | binds
10 | EFR3B (endogenous) (protein, UniProt Q9Y2G0 1-817) MYGVCGCCGALRPRYKRLVDNIFPEDPEDGLVKTNMEKLTFYALSAPEKLDRIGAYLSERLIRDVGRHRYGYVCIAMEALDQLLMACHCQSINLFVESFLKMVAKLLESEKPNLQILGTNSFVKFANIEEDTPSYHRSYDFFVSRFSEMCHSSHDDLEIKTKIRMSGIKGLQGVVRKTVNDELQANIWDPQHMDKIVPSLLFNLQHVEEAESRSPSPLQAPEKEKESPAELAERCLRELLGRAAFGNIKNAIKPVLIHLDNHSLWEPKVFAIRCFKIIMYSIQPQHSHLVIQQLLGHLDANSRSAATVRAGIVEVLSEAAVIAATGSVGPTVLEMFNTLLRQLRLSIDYALTGSYDGAVSLGTKIIKEHEERMFQEAVIKTVGSFASTLPTYQRSEVILFIMSKVPRPSLHQAVDTGRTGENRNRLTQIMLLKSLLQVSTGFQCNNMMSALPSNFLDRLLSTALMEDAEIRLFVLEILISFIDRHGNRHKFSTISTLSDISVLKLKVDKCSRQDTVFMKKHSQQLYRHIYLSCKEETNVQKHYEALYGLLALISIELANEEVVVDLIRLVLAVQDVAQVNEENLPVYNRCALYALGAAYLNLISQLTTVPAFCQHIHEVIETRKKEAPYMLPEDVFVERPRLSQNLDGVVIELLFRQSKISEVLGGSGYNSDRLCLPYIPQLTDEDRLSKRRSIGETISLQVEVESRNSPEKEERVPAEEITYETLKKAIVDSVAVEEQERERRRQVVEKFQKAPFEEIAAHCGARASLLQSKLNQIFEITIRPPPSPSGTITAAYGQPQNHSIPVYEMKFPDLCVY | binds
